Consider 2 substances from PMC4513854.

The chains behind the UniProt entries cited, without tags or fusion partners. Where a name states a change or a piece, a line headed by the entry shows the natural chain unless it says otherwise.
UniProt P23511: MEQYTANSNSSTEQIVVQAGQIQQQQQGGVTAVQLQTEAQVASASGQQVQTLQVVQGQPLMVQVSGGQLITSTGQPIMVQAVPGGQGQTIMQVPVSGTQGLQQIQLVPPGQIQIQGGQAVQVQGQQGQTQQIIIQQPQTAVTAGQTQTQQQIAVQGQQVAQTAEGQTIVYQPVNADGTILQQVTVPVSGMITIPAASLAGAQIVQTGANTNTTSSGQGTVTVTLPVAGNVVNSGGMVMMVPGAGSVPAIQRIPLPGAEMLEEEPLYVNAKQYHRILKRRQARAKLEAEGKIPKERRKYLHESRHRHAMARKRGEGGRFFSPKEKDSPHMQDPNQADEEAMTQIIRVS
UniProt P48436: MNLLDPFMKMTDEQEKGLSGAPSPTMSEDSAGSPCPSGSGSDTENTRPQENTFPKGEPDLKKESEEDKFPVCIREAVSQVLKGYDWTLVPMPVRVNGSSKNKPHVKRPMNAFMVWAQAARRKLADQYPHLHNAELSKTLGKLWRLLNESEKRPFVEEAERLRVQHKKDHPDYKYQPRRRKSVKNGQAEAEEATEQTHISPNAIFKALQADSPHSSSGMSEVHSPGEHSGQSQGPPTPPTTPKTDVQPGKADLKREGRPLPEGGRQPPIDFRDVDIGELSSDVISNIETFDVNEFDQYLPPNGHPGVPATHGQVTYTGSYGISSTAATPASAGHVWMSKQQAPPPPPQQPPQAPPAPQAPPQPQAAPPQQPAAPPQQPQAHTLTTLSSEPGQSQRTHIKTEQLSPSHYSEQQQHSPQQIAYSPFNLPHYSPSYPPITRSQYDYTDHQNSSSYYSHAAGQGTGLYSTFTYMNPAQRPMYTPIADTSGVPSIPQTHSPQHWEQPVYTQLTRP

Results are given in words; binding and its absence hold for the method and conditions named. In cells and extracts the contact can be indirect. Some results given as binding are weak or reduced against the parent protein; the word gives no strength.

The target in experiment [1] is NF-YA (human (endogenous in HCT116 and HT29)) (UniProt P23511). Briefly: proximity ligation; in situ PLA with anti-FLAG and anti-NF-YA antibodies on HCT116 cells transfected with FLAG-tagged SOX9 constructs; endogenous NF-YA.
Experiment [2] shares this target. The experiment in a line: proximity ligation; in situ PLA (Duolink) on fixed, permeabilised HCT116 and HT29 cells with anti-SOX9 and anti-NF-YA primary antibodies; endogenous proteins; control mouse IgG.

For “FLAG-SOX9-303ΔC (from UniProt P48436 1-303) (domain or fragment)”, in experiment [1], the binding result is reported as “no binding”. For the substance SOX9 (from UniProt P48436 1-509), in experiment [2], the binding entry was “binds”.
